Molecules are shown by their SMILES.

EC90/MIC data for four compounds are collected here from paper PMC7424068, “Design, Synthesis, and Biological Evaluation of Novel Thiazolidinone-Containing Quinoxaline-1,4-di-N-oxides as Antimycobacterial and Antifungal Agents” (Frontiers in Chemistry, 2020).

This series deals with TB-infected macrophage model. Description: Macrophage assay (TB-infected macrophage model). The format is cell-based, Mycobacterium tuberculosis. As to conditions: macrophage EC90 over MIC; EC90 > 16 x MIC considered inactive.

In the case of `O=C1CSC(c2c[n+]([O-])c3ccc(Cl)cc3[n+]2[O-])N1c1ccc(Cl)cc1` (stereo not shown) [2z, 7-Cl-2-(3′-P-chlorophenyl-4′(5H)-thiazolidinone)-quinoxaline-1,4-di-N-oxide], the EC90/MIC is 0.59.

Take `O=C1CSC(c2c[n+]([O-])c3ccc(Cl)cc3[n+]2[O-])N1c1ccc(F)cc1` (stereo not shown) [2y, 7-Cl-2-(3′-P-fluorophenyl-4′(5H)-thiazolidinone)-quinoxaline-1,4-di-N-oxide]: the EC90/MIC was 0.85.

In turn, `O=C1CSC(c2c[n+]([O-])c3ccc(F)cc3[n+]2[O-])N1c1ccc(Cl)cc1` (stereo not shown) [2u, 7-F-2-(3′-P-chlorophenyl-4′(5H)-thiazolidinone)-quinoxaline-1,4-di-N-oxide] had an EC90/MIC of 0.54.

Turning to `O=C1CSC(c2c[n+]([O-])c3ccc(F)cc3[n+]2[O-])N1c1ccc(F)cc1` (stereo not shown) [2t, 7-F-2-(3′-P-fluorophenyl-4′(5H)-thiazolidinone)-quinoxaline-1,4-di-N-oxide], the EC90/MIC amounted to 1.06.
